Experimental data: patent publication US20090247644A1, “MEMANTINE FORMULATIONS” (FOREST LABORATORIES HOLDINGS LIMITED, priority 2008, published 2009)
Counter-ions that a name gives are not always drawn.

Test: Taste test of crystals dry coated with taste masking and flavoring agents
Conditions: crystals dry coated with flavoring and taste masking agents (8.0 g active, 1.3 g agents), n=2, hydrochloride
Description: In an attempt to mask the bitter taste of memantine, equant-shaped crystals of memantine hydrochloride and needle-shaped crystals of memantine hydrochloride were independently dry coated with taste masking and flavoring agents e.g. Mimic Nat Powder, Neohesperidine, MR-77 Masking Fl, MW-94 Masking NFF, MQ-82 Prosweet Fl, Lemon Juice powder, Lemon Crystarome the components being blended for 5 minutes. The coated particles were tasted (n=2), without the individuals receiving a dose of the drug, to determine the effectiveness of the taste-masking. The bitter taste of the needle-like crystals was perceived immediately (in less than 5 seconds). The bitter taste of equant-shaped crystals could not be perceived for 10 seconds upon tasting.

| SMILES | Time until bitter taste perceived [s] | Time until bitter taste perceived (listed as needle-like crystals) |
| --- | --- | --- |
| CC12CC3CC(C)(C1)CC(N)(C3)C2 [Equant-shaped crystals of Memantine HCl, memantine hydrochloride] | ≥ 10 |  |
| CC12CC3CC(C)(C1)CC(N)(C3)C2 [Needle-shaped crystals of Memantine HCl, memantine hydrochloride] |  | less than 5 seconds |
